Measured values from publication PMC12389522.
Results are given in words; binding and its absence hold for the method and conditions named. Binding seen in cells or lysates may run through a third protein. Some entries that bind do so weakly or less than the wild type.

Biological target: T1, SET and MYND domain-containing protein family member 5 (SMYD5) (human (endogenous in Hep3B)) (UniProt Q6GMV2)
T1 sequence: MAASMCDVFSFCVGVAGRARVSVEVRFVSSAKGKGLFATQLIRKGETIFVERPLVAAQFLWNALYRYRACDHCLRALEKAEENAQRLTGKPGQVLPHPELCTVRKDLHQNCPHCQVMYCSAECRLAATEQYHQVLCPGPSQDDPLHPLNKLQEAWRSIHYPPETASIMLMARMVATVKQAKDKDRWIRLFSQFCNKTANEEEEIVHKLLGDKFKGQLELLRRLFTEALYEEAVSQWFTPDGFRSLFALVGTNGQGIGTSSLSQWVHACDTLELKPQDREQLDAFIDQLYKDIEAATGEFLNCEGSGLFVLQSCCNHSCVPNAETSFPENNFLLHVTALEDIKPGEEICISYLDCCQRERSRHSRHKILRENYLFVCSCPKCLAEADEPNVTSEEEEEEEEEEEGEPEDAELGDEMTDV
Assay: co-IP; IP analysis of SMYD5 and p53 (Figure S7); cells and precipitating antibody not named for this experiment; the methods describe one protocol (SMYD5 antibody, A/G magnetic beads, overnight at 4 °C)

binding: binds
Substance: p53 (from UniProt P04637 1-393)
